Library screening results

Amino acid sequences for entries named in this document (tags omitted).
UniProt E9BF75, entry or part of it: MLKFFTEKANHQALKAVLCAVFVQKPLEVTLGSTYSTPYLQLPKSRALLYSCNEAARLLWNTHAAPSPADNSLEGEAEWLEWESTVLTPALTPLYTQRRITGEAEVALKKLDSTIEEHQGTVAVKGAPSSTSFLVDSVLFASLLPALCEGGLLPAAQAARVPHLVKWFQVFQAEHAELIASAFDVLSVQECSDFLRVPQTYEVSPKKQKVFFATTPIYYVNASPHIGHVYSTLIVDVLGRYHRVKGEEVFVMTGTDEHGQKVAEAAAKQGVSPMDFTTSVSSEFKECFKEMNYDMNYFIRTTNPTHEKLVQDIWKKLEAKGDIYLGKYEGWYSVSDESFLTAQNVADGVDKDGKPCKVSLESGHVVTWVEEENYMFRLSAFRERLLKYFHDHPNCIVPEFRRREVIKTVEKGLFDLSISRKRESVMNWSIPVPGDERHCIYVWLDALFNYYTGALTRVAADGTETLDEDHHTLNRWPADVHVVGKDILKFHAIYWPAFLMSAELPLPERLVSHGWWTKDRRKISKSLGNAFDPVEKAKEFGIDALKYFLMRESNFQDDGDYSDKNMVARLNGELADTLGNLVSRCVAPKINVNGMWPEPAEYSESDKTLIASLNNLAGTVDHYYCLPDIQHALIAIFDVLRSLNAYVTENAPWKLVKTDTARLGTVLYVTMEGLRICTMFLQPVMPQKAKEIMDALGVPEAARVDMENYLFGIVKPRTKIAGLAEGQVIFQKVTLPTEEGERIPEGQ

Data taken from ChEMBL document CHEMBL3988442, “University of Dundee, Small-Polar-MMV Screening Library” (2021).

A: 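Assay on Mycobacterium tuberculosis, filed only as a heat shock assay from Cornell; the read-out is not stated. The concentration is filed as 10 mM, unlikely as a test dose, so the dose is not known. Higher reads as stronger inhibition (inferred: compounds with an IC50 in retests scored well above the rest). About 69,000 compounds were tested under these conditions; 1.4% (about 930) showed 50% or more at least once.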
B: 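Primary screen of methionyl-tRNA synthetase; the read-out is not stated. Target: Methionyl-tRNA synthetase (putative), Leishmania donovani (UniProt E9BF75). The test concentration is not given. The values are filed as inhibition. Of about 68,000 compounds tested this way, about 24 (0.035%) reached 50% or more in at least one test.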
C: 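Whole-cell assay for inhibitors of Mycobacterium tuberculosis growth, labelled Cornell in the record; the read-out is not stated. The concentration is filed as 10 mM, unlikely as a test dose, so the dose is not known. Higher means stronger inhibition (inferred from two other growth screens of the library). Of about 53,000 compounds tested this way, about 900 (1.7%) reached 50% or more in at least one test.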

All values are in %. The controls that fix the scale are not given in the record; negative values are as filed. The compounds are a random part of those screened.

{"compound": "Cc1cnc(NCC(C)(C)N2CCOCC2)nc1", "A": -15.84, "B": 13.4}
{"compound": "COc1c(C)cc(S(=O)(=O)NCC2CNCCOC2)cc1C", "stereo": "stereo not drawn", "A": 13.09, "B": 8.871, "C": -0.128}
{"compound": "N#Cc1cccc(C(=O)N2CCC(Nc3cccnn3)CC2)c1", "A": -9.717, "B": 9.972, "C": -39.11}
{"compound": "CCN1CC2(CCN(CC3CCCO3)CC2)OC1=O", "stereo": "stereo not drawn", "A": -139.4, "B": 13.6}
{"compound": "CNC(=O)C(C)(C)N1CCC[C@H]1C(=O)NCC(C)C.Cl", "A": -23.63}
{"compound": "O=C(O)C(F)(F)F.[H][C@]12C[C@H](C(=O)NC)N(C)[C@@]1([H])CN(S(=O)(=O)c1ccc(C)cc1)C2", "A": -40.24, "C": 20.16}
{"compound": "Cc1nnsc1C(=O)N1CCN(C(=O)C2CCC2)[C@@H]2CS(=O)(=O)C[C@@H]21", "B": 23.12}
{"compound": "CS(=O)(=O)N[C@@H]1CCO[C@]2(CCN(C(=O)C3=CCCC3)C2)C1", "A": -7.151, "B": 15.15, "C": 3.454}
{"compound": "COc1cccc(CN(C)Cc2cccc(C#N)c2)c1OC", "A": 12.72, "B": 12.38, "C": 11.76}
{"compound": "COc1cc(N2CCc3ncnc(-c4cnn(C)c4)c3CC2)ncn1", "A": 4.931, "B": 10.28, "C": -27.49}
{"compound": "O=C1CCC(C(=O)NCc2nncn2-c2ccccc2)CN1", "stereo": "stereo not drawn", "A": 3.448, "B": 9.15, "C": -2.401}
{"compound": "CC(C)N(C)CC(=O)N(C)C(c1cccc(F)c1)c1ccccn1", "stereo": "stereo not drawn", "A": -24.71, "B": -3.977}
{"compound": "Cc1ncc(CNCCO)c2cc(C(=O)c3ccc(Br)cc3)oc12", "B": 12.2}
{"compound": "CCc1ccc(N2CCC(NS(=O)(=O)N(CC)CC)CC2)cc1", "A": -15.63, "B": 12.57, "C": 14.08}
{"compound": "CSCC[C@@H](CO)n1ccnc1-c1ccncc1", "A": -6.683, "B": 10.78, "C": 13.13}
{"compound": "CC(C)(C)CC(=O)N1CCC(n2cc(C3(O)CCCC3)nn2)CC1", "A": 19.37, "B": 13.12, "C": 33.65}
{"compound": "Cc1noc(NC(=O)c2ccc(OC(F)(F)F)cc2)n1", "A": 102.9, "B": 18.11, "C": 104.6}
{"compound": "CC(=O)c1ccc(C(=O)Nc2ccnc(N(C)C)n2)cc1", "A": 0.5089, "B": 11.42}
{"compound": "O=C(O)C(F)(F)F.O=C(O)C(F)(F)F.[H][C@@]12CN(Cc3csc(C)n3)CCO[C@]1([H])CN(Cc1ccsc1)C2", "A": -17.29, "C": 22.49}
{"compound": "C[C@@H]1CN(Cc2ccncc2)C[C@]1(C)O", "A": 1.944, "B": 5.497, "C": 9.298}
{"compound": "Cc1cc(N2CCN(Cc3ccc(-c4cc[nH]n4)o3)CC2)cc(C)n1", "A": -29.86, "B": 10.73, "C": 0.3982}
{"compound": "CC(=O)N1N=C(c2cccs2)OC1C(=O)Nc1ccc(C(C)C)cc1", "stereo": "stereo not drawn", "A": -1.988, "B": 4.722, "C": 0.4161}
{"compound": "COc1ncccc1C(=O)NCCn1nc(C)ccc1=O", "A": -12.82, "B": 11.02, "C": 3.717}
{"compound": "Cc1cc(CN2C[C@H]3CC[C@@H]2CN(Cc2[nH]cnc2C)C3)on1", "B": 8.04}
{"compound": "COc1cc(NC(=O)NC2CCOCC2)ccc1N1CCOC1=O", "A": -10.34, "B": 2.857, "C": 2.427}
{"compound": "CC(C)c1cnc(CN(C)C2CCN(CCc3cnn(C)c3)C2)o1", "stereo": "stereo not drawn", "A": -7.003, "B": 15.32, "C": -2.035}
{"compound": "COc1ccc(C(C)NCc2cnnn2C)cc1F", "stereo": "stereo not drawn", "A": -3.907, "B": 3.922, "C": -5.799}
{"compound": "O=C(O)C(F)(F)F.O=C(O)C(F)(F)F.O=C(c1ccsc1)N1CCOC2(CCN(Cc3cccnc3)CC2)C1", "A": -9.47, "C": 23.24}
{"compound": "CCC1CCCCCN1C(=O)c1coc(S(=O)(=O)N(C)C)c1", "stereo": "stereo not drawn", "A": -4.746, "B": 5.292, "C": 19.88}
{"compound": "CCc1nnc(NC(=O)c2c3c(nn2C2CCS(=O)(=O)C2)CCC3)s1", "stereo": "stereo not drawn", "A": 2.656, "B": 7.627, "C": -18.44}
{"compound": "CCc1nnc2n1CCN(C(=O)c1cnc3c(cnn3C(C)C)c1)C2", "A": -19.66, "B": 9.355, "C": 0.8816}
{"compound": "CC(C)c1nc(C2CCCN2C(=O)CN(C)Cc2ccccc2)no1", "stereo": "stereo not drawn", "A": -15.19, "B": 2.778, "C": 12.1}
{"compound": "Cc1ccc(CN2CCc3[nH]nc(C(=O)N4CCN(C)CC4)c3C2)o1", "B": 2.778}
{"compound": "CNC(=O)CNC1CC2(CCN(c3ncccn3)CC2)c2ccccc21.O=C(O)C(F)(F)F.O=C(O)C(F)(F)F", "stereo": "stereo not drawn", "A": -27.79, "C": 16.04}
{"compound": "NC(=O)NCC(=O)N1C[C@H]2CC[C@@H]1CN(Cc1cscn1)C2", "B": 1.529}